# In PubChem BioAssay AID588590 (National Center for Advancing Translational Sciences (NCATS), 2011):
# Protein sequences, listed by entry. Tags and fused reporters are not part of them. Lines headed by an entry give the natural chain unless they say otherwise; changes in a name come on top.
# UniProt Q9UNA4: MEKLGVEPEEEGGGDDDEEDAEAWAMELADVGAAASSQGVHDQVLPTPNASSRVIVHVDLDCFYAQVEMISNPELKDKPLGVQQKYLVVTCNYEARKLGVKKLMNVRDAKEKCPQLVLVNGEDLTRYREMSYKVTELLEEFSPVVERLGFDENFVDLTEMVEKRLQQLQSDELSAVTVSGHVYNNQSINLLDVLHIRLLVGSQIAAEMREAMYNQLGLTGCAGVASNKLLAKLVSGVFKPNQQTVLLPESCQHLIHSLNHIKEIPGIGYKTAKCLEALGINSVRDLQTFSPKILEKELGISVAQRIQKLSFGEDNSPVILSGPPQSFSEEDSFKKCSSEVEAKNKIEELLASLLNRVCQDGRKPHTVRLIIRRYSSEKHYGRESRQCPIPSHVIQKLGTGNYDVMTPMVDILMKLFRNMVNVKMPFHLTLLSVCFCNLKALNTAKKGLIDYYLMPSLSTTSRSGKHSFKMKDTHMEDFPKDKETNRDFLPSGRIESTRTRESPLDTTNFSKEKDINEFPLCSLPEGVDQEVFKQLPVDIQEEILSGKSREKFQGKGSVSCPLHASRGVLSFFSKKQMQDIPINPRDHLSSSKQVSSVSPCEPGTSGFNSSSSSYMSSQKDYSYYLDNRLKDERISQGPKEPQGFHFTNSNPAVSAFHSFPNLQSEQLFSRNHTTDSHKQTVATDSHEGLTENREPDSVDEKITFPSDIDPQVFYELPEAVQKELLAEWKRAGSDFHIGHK
# In all, about 390,000 compounds went through this assay and about 4,000 (1%) were called active. The shares of active, inactive and inconclusive entries below differ from those in the screen. Calls come from the whole dose curve; as a rule, active = well fitted inhibition curve with a large enough effect; inconclusive = small, poorly fitted or top-dose-only effect, or another doubt; inactive = no such curve, though single readings can be large or run the other way. A potency beside an inconclusive call is a rough fit, not a confirmed value.
# Molecular target: DNA polymerase iota (Homo sapiens) (UniProt Q9UNA4)
# Experiment: qHTS for Inhibitors of Polymerase Iota
# Conditions: Pol iota fluorescent replication assay, 10 min; series mostly up to 115 µM; activity, negative = inhibition: at the top concentration
# Procedure, shortened: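 Fluorescent replication assay read twice, at 0 min and 10 min after adding 50 nM (final) substrate. Enzyme (10 nM) and compounds were first incubated 15 min at room temperature; enzyme-free buffer wells were negative controls.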
# Potency is the fitted concentration of half-maximal effect.
Structure (SMILES),Potency,"activity, negative = inhibition"
COC(=O)c1ccc(C)c(NC(=O)CCc2ccc(OC)cc2)c1,"inconclusive: 20 µM [inhibitor, single point]",–
Cc1cccn2c(=O)c3cc(C(=O)NCc4ccccc4)c(=N)n(CCOCCO)c3nc12,"inconclusive: 79.4 µM [inhibitor, partial curve]",–
Cc1cc2ncn(C(=O)c3c(-c4ccccc4Cl)noc3C)c2cc1C,"inconclusive: 31.6 µM [inhibitor, partial curve, poor fit]",–
COc1ccccc1NS(=O)(=O)c1ccc(C)c(C(=O)N2CCN(c3ccc(O)cc3)CC2)c1,–,inactive: -7.83%
COCCOC1CCN(C(=O)C2CCC(=O)N(CCc3ccccc3)C2)CC1 (centres undefined),–,inactive: -12.3%
O=C(CN1C(=O)C2C3C=CC(C4CC34)C2C1=O)Nc1cnc2ccccc2c1 (centres undefined),"inconclusive: 100 µM [inhibitor, partial curve, poor fit]",–
CC1=[N+]([O-])C(C)(C)CC(C)(C)c2ccccc21,"inconclusive: 35.5 µM [inhibitor, partial curve, poor fit]",–
O=S(=O)(Cc1ccccc1)N1CCN(c2nc(-c3cccs3)nc3ccccc23)CC1,–,inactive: 9.44%
COc1ccc(N2C(=O)C3CCCN3C2c2ccc(F)cc2)cc1Cl (centres undefined),"inconclusive: 100 µM [inhibitor, partial curve, poor fit]",–
COc1ccc(C(=O)Nc2ccccc2C(=O)NC(Cc2ccc(O)cc2)C(=O)NNC(=O)c2ccccc2Cl)cc1 (centres undefined),"inconclusive: 89.1 µM [inhibitor, single point]",–
O=C(c1ccccc1Cl)n1nc(-c2cccnc2)nc1NCc1ccc(F)cc1,–,inactive: 22.6%
CC1=C(C(=O)O)N2C(=O)[C@@H](NC(=O)[C@H](N)c3ccc(O)cc3)[C@H]2SC1,–,inactive: 4.86%
COc1ccccc1NC(=O)Cc1coc2cc(C)ccc12,–,inactive: 15.9%
COC(=O)c1ccc(/C=C(\C#N)C(=O)NC(C)c2ccccc2)cc1 (centres undefined),"inconclusive: 11.2 µM [inhibitor, partial curve, poor fit]",–
Cc1ccc2oc(=O)c(/C=C(\O)C(C)(C)C)nc2c1,–,inactive: 15%
Fc1ccc(CNC2CCN(Cc3ccccc3)CC2)cc1,"inconclusive: 10 µM [inhibitor, partial curve, poor fit]",–
O=C(O)c1cc(-c2ccc(/C=N/N3C(=O)C4C5C=CC(C6CC56)C4C3=O)o2)ccc1Cl (centres undefined),–,inactive: 34.5%
CC(C)CNc1nnnc2c1sc1nc(N3CCOCC3)c3c(c12)CC(C)(C)SC3,"inconclusive: 2.82 µM [inhibitor, full curve, poor fit]",–
CC(C)c1ccc(S(=O)(=O)Nc2ccc3oc4c(c3c2)C(=O)CC(C)(C)C4)cc1,–,inactive: 12.2%

# Copied from the list:
# activity, negative = inhibition with O=C(O)c1cc(-c2ccc(/C=N/N3C(=O)C4C5C=CC(C6CC56)C4C3=O)o2)ccc1Cl (centres undefined) is entered as inactive: 34.5%
# Potency with COC(=O)c1ccc(/C=C(\C#N)C(=O)NC(C)c2ccccc2)cc1 (centres undefined) is entered as inconclusive: 11.2 µM [inhibitor, partial curve, poor fit]
